At least one structure is not confirmed: it was looked up by name or label, or the drawing left a doubt.
How the values were obtained:
urease [1] = test: Screening of urease inhibition (colorimetric Phenol Red assay, 96 well plates); format: biochemical; conditions: positive hits table; fraction vs negative control; additive 0.1 w/w, urea 0.2% w/w, urease 0.5 U/ml, 1 h
Procedure: Urease catalyzed ammonia formation leads to a change in pH (alkalization). […] The enzymatic screening assay is described below. The colorimetric assay is conducted in 96 well plates in combination with a microplate spectrophotometer with Phenol Red as pH sensitive indicator.
In brief: the substrate urea, the fragrance raw material and the urease are mixed in the wells and the change in absorption at 560 nm is monitored for 1 h. The resulting absorbance curves are compared to untreated samples (negative controls, without inhibitors) and samples with commercially available NBPT inhibitor (positive control).

urease [2] = test: Application in cat litter: ammonia formation from artificial cat urine (headspace sampling); conditions: litter coated with 0.1% (w/w) active material; artificial cat urine with urea and urease; headspace ammonia over 5 days; negative control = 100
Procedure: The efficiency of reducing ammonia formation in cat litter was tested with different fragrance raw materials that are shown in the table below (table 3).
In brief, the litter was coated with a final concentration of 0.1% (w/w) of active material respective to the dry litter material. In a glass bottle with a total volume of 5 l, the litter is treated with artificial cat urine that consists of an aqueous salt solution containing urea and urease. The development of ammonia is measured through headspace sampling with an ammonia sensitive detector over a period of 5 days.

CCC1OC(=O)C(O)=C1C (centres unmarked) [METHYL ETHYL HYDROXYFURANONE, methyl ethyl hydroxyfuranone]
Inhibition (urease [1]): 1.000 | Relative ammonia formation in % (urease [2]): 41%
